# Test results from patent publication US20260266834A1, “Compositions And Methods For Detecting Proteins In Protein Corona” (Board of Trustees of Michigan State University, priority 2023, published 2026).
# Experiments:
# [1] = LC-MS/MS (DDA, label-free) analysis of protein corona formed on polystyrene NPs in human plasma spiked with small molecules
# [2] = PtdChos concentration series, LC-MS/MS of protein corona (120 minute gradient); set-up: species or system human
# [3] = LC-MS analysis of protein corona by data-independent acquisition (DIA); set-up: species or system human; conditions: 1000 μg/ml PtdChos
substance,measurement,setting,value
phosphatidylcholine [PtdChos],number of quantified proteins in protein corona,"[1]; 1000 μg/ml small molecule spiked into 55% human plasma, polystyrene NPs 0.2 mg/ml, DDA LC-MS/MS",897
same,fold of quantified proteins in plasma alone,"[1]; 1000 μg/ml small molecule, versus plasma alone (218 proteins)",4.1 fold
same,fold of quantified proteins in untreated corona,"[1]; 1000 μg/ml small molecule, versus untreated protein corona (681 proteins)",1.3 fold
same,"number of proteins quantified in protein corona, concentration series","[2]; PtdChos 1000 μg/ml, fresh samples, 120 minute gradient",957
same,effect of other PtdChos concentrations on number of quantified proteins,"[2]; series 100 to 10,000 μg/ml",neither lower concentration nor further addition of PtdChos enhanced the number of quantified proteins
same,fold increase of identified proteins over the untreated corona (DIA),[3],1.4 fold
same,number of proteins identified in protein corona (DIA),[3]; one replicate,1436
